The results in this text go back to PMC9512700, “Observation of conformational changes that underlie the catalytic cycle of Xrn2” (Nature Chemical Biology, 2022).

The exact form of at least one protein or probe is not confirmed. At least one verdict was read from the data and is not stated in words by the source. Tags and fusion partners may be left off the protein sequences shown.

For this data set, the target named is T1, CtXrn2 deltaZnF N12C-BTFA N12C,del263-300 (Chaetomium thermophilum) (UniProt G0S058).
T1 sequence (looked up): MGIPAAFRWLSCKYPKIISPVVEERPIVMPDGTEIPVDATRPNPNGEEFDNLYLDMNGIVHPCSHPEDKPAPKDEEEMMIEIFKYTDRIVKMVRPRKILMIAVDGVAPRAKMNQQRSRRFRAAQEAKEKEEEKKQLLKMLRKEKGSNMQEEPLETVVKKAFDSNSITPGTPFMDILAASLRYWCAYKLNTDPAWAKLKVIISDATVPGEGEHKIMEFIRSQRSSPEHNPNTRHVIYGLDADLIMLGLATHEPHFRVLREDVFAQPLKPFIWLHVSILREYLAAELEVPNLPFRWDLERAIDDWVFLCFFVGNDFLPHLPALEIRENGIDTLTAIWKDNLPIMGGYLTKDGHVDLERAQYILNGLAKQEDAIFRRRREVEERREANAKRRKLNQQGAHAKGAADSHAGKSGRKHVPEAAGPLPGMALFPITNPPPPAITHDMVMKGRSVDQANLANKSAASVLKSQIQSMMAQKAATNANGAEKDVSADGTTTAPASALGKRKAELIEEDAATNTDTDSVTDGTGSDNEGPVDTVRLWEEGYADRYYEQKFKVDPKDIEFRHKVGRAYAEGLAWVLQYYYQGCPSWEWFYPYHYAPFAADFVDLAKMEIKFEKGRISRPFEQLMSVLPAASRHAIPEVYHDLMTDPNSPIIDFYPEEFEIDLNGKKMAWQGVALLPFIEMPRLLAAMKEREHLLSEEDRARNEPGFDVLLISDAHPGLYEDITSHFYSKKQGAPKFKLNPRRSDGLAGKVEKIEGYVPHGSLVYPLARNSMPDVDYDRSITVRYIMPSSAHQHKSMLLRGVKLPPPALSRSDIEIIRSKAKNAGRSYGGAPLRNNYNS
As to the kind of experiment: NMR (19F CPMG). The note with it: no Mg2+, helix dynamics unchanged; 5'-phosphate; NMR: 25 mM HEPES pH 7.3, 125 mM NaCl, 1 mM DTT, 5 mM MgCl2 unless noted; recombinant protein; residues 1-875; protein details: C-terminal His6 (LEHHHHHH); single-stranded DNA.

For the sequence AAAAA [pdA5], the binding result was “binds”.
